Assay results as given in patent US20120117670A1.
Positions count from the first letter of the chain named. No constants are given. Whether binding was seen depends on the method and setting. Some results given as binding are weak or reduced against the parent protein; the word gives no strength. For some of these results: Tags and fused reporters may be left off the sequences shown.

B1: rat anti-human AXL monoclonal antibody #11B7 (antibody, rat IgG1, V domains shown)
VH: EVQLQESGPGLVKPSQSLSLTCSVTGYSITSNYWGWIRKFPGDKMEWMGYITYSGSTSYNPSLKSRISITRDTSKNQFFLQLNSVTSEDTATYYCAITTFYYWGQGVMVTVSS
VL: DIQMTQAPSSLPASLGDRVTITCRASQDIGNYLRWFQQKPGKSPRLMISGATNLAAGVPSRFSGSRSGSDYSLTISSLESEDMADYYCLQSKESPWTFGGGTKLELKR
B2: chimeric anti-AXL antibody ch11B7-IgG1 (antibody, V domains shown)
VH: B1 VH
VL: B1 VL
B3: h#11B7-T7 (antibody, human IgG1, kappa, V domains shown)
VH: QVQLQESGPGLVKPSETLSLTCTVSGYSITSNYWGWIRQPPGKGLEWIGYITYSGSTSYNPSLKSRVSISRDTSKNQFSLKLSSVTAADTAVYYCAITTFYYWGQGTLVTVSS
VL: DIQMTQSPSSLSASVGDRVTITCRASQDIGNYLRWYQQKPGKAPKLMISGATNLAAGVPSRFSGSGSGSDYTLTISSLQPEDFATYYCLQSKESPWTFGQGTKVEIKR
B4: h#11B7-T8 (antibody, human IgG1, kappa, V domains shown)
VH: B3 VH
VL: B3 VL with Y36F, M47L
B5: h#11B7-T9 (antibody, human IgG1, kappa, V domains shown)
VH: B3 VH
VL: B3 VL with Y36F, Y71F
B6: h#11B7-T10 (antibody, human IgG1, kappa, V domains shown)
VH: B3 VH
VL: B3 VL with M47L
B7: h#11B7-T11 (antibody, human IgG1, kappa, V domains shown)
VH: B3 VH
VL: B3 VL with Y36F, M47L, Y71F
B8: h#11B7-T12 (antibody, human IgG1, kappa, V domains shown)
VH: B3 VH
VL: B3 VL with Y71F
B9: h#11B7-T13 (antibody, human IgG1, kappa, V domains shown)
VH: B3 VH
VL: B3 VL with M47L, Y71F
B10: h#11B7-T1 (antibody, human IgG1, kappa, V domains shown)
VH: B3 VH with V2I, E16Q, T23A, S68T, R71V
VL: B3 VL with M47L, S65T, S69T, Y71F, L73F, Q100G
B11: h#11B7-T14 (antibody, human IgG1, kappa, V domains shown)
VH: B3 VH with I48M, V67I, S68T
VL: B3 VL
B12: h#11B7-T16 (antibody, human IgG1, kappa, V domains shown)
VH: B3 VH with I48M, V67I, S68T
VL: B3 VL with Y36F, Y71F
B13: h#11B7-T17 (antibody, human IgG1, kappa, V domains shown)
VH: B3 VH with I48M, V67I, S68T
VL: B3 VL with M47L
B14: h#11B7-T2 (antibody, human IgG1, kappa, V domains shown)
VH: B3 VH with V2I, E16Q, T23A, I48M, V67I, R71V
VL: B3 VL with Y36F, S65T, S69T, L73F, Q100G
B15: h#11B7-T19 (antibody, human IgG1, kappa, V domains shown)
VH: B3 VH with I48M, V67I, S68T
VL: B3 VL with Y71F
B16: h#11B7-T20 (antibody, human IgG1, kappa, V domains shown)
VH: B3 VH with I48M, V67I, S68T
VL: B3 VL with M47L, Y71F
B17: h#11B7-T21 (antibody, human IgG1, kappa, V domains shown)
VH: B3 VH with S68T
VL: B3 VL
B18: h#11B7-T23 (antibody, human IgG1, kappa, V domains shown)
VH: B3 VH with S68T
VL: B3 VL with Y36F, Y71F
B19: h#11B7-T24 (antibody, human IgG1, kappa, V domains shown)
VH: B3 VH with S68T
VL: B3 VL with M47L
B20: h#11B7-T26 (antibody, human IgG1, kappa, V domains shown)
VH: B3 VH with S68T
VL: B3 VL with Y71F
B21: h#11B7-T3 (antibody, human IgG1, kappa, V domains shown)
VH: B3 VH with E16Q, T23A, Q39K, K43D, I48M, V67I, S70T
VL: B3 VL with Y36F, G66R, Q100G
B22: h#11D5-T1 (antibody, human IgG1, kappa, V domains shown)
VH: QVQLQESGPGLVKPSQTLSLTCTVSGYSITSNYWGWIRQPPGMGLEWIGHITNSGNTTYNPSLKSRVTISVDTSENQFSLKLSSVTPADTAVYYCAKGAFDYWGQGTLVTVSS
VL: DVQMTQSPSSLSASVGDRVTITCRASQDIGNYLSWYQQKPGKAPKLLIYGAIKLAVGVPSRFSGSGSGTDFTLTISSLQPEDFATYYCLQYIQFPLTFGQGTKLEIKR
B23: h#11D5-T2 (antibody, human IgG1, kappa, V domains shown)
VH: B22 VH with Q1E, V67I, T68S
VL: B22 VL with V2I, Y36F, K45R, L47M, F71Y
B24: h#11D5-T3 (antibody, human IgG1, kappa, V domains shown)
VH: B22 VH with Q1E, Q39K, P40F, M43N, G44K, L45M, V67I, T68S, V71R, E75K
VL: DIQMTQSPSSLSASVGDRVTITCRASQDIGNYLSWFQQKVGKSPRRMIYGAIKLAVGVPSRFSGSRSGSDYTLTISSLQPEDFAIYYCLQYIQFPLTFGSGTKLEIKR
B25: h#11D5-T4 (antibody, human IgG1, kappa, V domains shown)
VH: B22 VH with E6Q, S7W, P9A, V12L, Q16E, M43K, V71R, E75K, P87A
VL: B22 VL with V2I, L46R, D70E, Q100G, L104V
B26: chimeric anti-AXL antibody ch11D5-IgG1 (antibody, V domains shown)
VH: EVQLQESGPGLVKPSQSLSLTCSVTGYSITSNYWGWIRKFPGNKMEWIGHITNSGNTTYNPSLKSRISISRDTSRNQFFLQLNSVTTEDTATYYCAKGAFDYWGQGVMVTVSS
VL: B24 VL with L11M, A13T, V15L, T72S, Q79E, P80S, F83M, I106L

Biological target: T1, NHis-hAXL129-220 (human AXL single IG domain) (human) (UniProt P30530)
T1 sequence: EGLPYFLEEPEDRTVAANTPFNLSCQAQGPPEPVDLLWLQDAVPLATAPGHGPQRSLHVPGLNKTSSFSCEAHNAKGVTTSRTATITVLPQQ
Assay: ELISA on plate-adsorbed human AXL IG-domain fragment (1 ug/ml), antibody at 0.04 ug/ml, fluorescent substrate (Example 16)

binding, binds:
B1

Biological target: Human AXL-Fc (R&D Systems, #154-AL) (human) (UniProt P30530)
Assay: ELISA on plate-adsorbed human AXL-Fc (1 ug/ml), 5-fold antibody dilution series, AP-conjugated goat anti-human IgG, fluorescent substrate (Example 13)

binding, binds:
B2
B3
B4
B5
B6
B7
B8
B9
B10
B11
B12
B13
B14
B15
B16
B17
B18
B19
B20
B21

Biological target: T1, NHis-hAXL129-220 (human AXL single IG domain) (human)
Assay: ELISA, plate-adsorbed AXL IG domain construct (1 µg/ml), antibody 0.04 µg/ml

binding, binds:
B1

Biological target: Human AXL-Fc (R&D Systems, #154-AL) (human) (UniProt P30530)
Assay: ELISA on plate-adsorbed human AXL-Fc (1 ug/ml), 5-fold antibody dilution series, AP-conjugated goat anti-human IgG, fluorescent substrate (Example 14)

binding, binds:
B22
B23
B24
B25
B26

Biological target: Human AXL-Fc (R&D Systems, #154-AL) (human) (UniProt P30530)
Assay: ELISA, human AXL-Fc coated plate; reference antibody

binding, binds:
B2
B26

Biological target: Human AXL-Fc (R&D Systems, #154-AL) (human) (UniProt P30530)
Assay: ELISA, human AXL-Fc coated plate, antibody 1 µg/ml to 0.00256 ng/ml

binding, binds:
B3
B4
B5
B6
B7
B8
B9
B10
B11
B12
B13
B14
B15
B16
B17
B18
B19
B20
B21
B25
